In patent publication US20120035244A1, “PARP1 TARGETED THERAPY” (THE REGENTS OF THE UNIVERSITY OF MICHIGAN, priority 2010, published 2012):
No constants are given. Whether binding was seen depends on the method and setting. For some assays here: Binding seen in cells or lysates may run through a third protein. Some results given as binding are weak or reduced against the parent protein; the word gives no strength. Sequences can lack the tags named with a protein.

The chains behind the UniProt entries cited, without tags or fusion partners. Residues count along the entry.
UniProt P09874, residues 2-1014: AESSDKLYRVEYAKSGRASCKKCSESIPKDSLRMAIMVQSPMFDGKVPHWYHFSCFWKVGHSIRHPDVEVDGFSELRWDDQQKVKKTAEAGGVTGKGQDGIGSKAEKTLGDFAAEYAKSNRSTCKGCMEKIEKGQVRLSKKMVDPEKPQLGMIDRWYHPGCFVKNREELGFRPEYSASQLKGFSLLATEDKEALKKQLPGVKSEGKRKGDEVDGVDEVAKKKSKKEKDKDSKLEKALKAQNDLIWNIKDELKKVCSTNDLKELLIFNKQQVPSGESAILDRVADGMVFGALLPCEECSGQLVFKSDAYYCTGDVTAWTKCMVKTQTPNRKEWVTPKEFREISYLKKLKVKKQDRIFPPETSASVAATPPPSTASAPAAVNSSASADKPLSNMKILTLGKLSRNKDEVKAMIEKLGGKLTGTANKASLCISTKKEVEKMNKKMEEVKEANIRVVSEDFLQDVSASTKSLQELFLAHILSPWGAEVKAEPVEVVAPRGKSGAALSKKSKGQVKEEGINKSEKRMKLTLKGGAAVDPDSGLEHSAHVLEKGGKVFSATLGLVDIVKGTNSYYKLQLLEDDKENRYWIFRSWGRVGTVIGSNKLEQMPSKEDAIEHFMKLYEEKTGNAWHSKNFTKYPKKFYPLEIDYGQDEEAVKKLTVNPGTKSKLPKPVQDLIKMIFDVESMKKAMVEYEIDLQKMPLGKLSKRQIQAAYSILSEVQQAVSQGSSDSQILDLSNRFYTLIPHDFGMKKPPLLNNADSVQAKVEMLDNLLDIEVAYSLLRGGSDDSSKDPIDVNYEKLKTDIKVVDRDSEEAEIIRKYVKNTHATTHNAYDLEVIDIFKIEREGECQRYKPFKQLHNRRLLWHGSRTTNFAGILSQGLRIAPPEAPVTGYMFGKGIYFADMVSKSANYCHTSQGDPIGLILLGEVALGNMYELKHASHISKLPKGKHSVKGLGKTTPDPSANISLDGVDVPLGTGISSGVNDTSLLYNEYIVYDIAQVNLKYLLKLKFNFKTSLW
UniProt P78527: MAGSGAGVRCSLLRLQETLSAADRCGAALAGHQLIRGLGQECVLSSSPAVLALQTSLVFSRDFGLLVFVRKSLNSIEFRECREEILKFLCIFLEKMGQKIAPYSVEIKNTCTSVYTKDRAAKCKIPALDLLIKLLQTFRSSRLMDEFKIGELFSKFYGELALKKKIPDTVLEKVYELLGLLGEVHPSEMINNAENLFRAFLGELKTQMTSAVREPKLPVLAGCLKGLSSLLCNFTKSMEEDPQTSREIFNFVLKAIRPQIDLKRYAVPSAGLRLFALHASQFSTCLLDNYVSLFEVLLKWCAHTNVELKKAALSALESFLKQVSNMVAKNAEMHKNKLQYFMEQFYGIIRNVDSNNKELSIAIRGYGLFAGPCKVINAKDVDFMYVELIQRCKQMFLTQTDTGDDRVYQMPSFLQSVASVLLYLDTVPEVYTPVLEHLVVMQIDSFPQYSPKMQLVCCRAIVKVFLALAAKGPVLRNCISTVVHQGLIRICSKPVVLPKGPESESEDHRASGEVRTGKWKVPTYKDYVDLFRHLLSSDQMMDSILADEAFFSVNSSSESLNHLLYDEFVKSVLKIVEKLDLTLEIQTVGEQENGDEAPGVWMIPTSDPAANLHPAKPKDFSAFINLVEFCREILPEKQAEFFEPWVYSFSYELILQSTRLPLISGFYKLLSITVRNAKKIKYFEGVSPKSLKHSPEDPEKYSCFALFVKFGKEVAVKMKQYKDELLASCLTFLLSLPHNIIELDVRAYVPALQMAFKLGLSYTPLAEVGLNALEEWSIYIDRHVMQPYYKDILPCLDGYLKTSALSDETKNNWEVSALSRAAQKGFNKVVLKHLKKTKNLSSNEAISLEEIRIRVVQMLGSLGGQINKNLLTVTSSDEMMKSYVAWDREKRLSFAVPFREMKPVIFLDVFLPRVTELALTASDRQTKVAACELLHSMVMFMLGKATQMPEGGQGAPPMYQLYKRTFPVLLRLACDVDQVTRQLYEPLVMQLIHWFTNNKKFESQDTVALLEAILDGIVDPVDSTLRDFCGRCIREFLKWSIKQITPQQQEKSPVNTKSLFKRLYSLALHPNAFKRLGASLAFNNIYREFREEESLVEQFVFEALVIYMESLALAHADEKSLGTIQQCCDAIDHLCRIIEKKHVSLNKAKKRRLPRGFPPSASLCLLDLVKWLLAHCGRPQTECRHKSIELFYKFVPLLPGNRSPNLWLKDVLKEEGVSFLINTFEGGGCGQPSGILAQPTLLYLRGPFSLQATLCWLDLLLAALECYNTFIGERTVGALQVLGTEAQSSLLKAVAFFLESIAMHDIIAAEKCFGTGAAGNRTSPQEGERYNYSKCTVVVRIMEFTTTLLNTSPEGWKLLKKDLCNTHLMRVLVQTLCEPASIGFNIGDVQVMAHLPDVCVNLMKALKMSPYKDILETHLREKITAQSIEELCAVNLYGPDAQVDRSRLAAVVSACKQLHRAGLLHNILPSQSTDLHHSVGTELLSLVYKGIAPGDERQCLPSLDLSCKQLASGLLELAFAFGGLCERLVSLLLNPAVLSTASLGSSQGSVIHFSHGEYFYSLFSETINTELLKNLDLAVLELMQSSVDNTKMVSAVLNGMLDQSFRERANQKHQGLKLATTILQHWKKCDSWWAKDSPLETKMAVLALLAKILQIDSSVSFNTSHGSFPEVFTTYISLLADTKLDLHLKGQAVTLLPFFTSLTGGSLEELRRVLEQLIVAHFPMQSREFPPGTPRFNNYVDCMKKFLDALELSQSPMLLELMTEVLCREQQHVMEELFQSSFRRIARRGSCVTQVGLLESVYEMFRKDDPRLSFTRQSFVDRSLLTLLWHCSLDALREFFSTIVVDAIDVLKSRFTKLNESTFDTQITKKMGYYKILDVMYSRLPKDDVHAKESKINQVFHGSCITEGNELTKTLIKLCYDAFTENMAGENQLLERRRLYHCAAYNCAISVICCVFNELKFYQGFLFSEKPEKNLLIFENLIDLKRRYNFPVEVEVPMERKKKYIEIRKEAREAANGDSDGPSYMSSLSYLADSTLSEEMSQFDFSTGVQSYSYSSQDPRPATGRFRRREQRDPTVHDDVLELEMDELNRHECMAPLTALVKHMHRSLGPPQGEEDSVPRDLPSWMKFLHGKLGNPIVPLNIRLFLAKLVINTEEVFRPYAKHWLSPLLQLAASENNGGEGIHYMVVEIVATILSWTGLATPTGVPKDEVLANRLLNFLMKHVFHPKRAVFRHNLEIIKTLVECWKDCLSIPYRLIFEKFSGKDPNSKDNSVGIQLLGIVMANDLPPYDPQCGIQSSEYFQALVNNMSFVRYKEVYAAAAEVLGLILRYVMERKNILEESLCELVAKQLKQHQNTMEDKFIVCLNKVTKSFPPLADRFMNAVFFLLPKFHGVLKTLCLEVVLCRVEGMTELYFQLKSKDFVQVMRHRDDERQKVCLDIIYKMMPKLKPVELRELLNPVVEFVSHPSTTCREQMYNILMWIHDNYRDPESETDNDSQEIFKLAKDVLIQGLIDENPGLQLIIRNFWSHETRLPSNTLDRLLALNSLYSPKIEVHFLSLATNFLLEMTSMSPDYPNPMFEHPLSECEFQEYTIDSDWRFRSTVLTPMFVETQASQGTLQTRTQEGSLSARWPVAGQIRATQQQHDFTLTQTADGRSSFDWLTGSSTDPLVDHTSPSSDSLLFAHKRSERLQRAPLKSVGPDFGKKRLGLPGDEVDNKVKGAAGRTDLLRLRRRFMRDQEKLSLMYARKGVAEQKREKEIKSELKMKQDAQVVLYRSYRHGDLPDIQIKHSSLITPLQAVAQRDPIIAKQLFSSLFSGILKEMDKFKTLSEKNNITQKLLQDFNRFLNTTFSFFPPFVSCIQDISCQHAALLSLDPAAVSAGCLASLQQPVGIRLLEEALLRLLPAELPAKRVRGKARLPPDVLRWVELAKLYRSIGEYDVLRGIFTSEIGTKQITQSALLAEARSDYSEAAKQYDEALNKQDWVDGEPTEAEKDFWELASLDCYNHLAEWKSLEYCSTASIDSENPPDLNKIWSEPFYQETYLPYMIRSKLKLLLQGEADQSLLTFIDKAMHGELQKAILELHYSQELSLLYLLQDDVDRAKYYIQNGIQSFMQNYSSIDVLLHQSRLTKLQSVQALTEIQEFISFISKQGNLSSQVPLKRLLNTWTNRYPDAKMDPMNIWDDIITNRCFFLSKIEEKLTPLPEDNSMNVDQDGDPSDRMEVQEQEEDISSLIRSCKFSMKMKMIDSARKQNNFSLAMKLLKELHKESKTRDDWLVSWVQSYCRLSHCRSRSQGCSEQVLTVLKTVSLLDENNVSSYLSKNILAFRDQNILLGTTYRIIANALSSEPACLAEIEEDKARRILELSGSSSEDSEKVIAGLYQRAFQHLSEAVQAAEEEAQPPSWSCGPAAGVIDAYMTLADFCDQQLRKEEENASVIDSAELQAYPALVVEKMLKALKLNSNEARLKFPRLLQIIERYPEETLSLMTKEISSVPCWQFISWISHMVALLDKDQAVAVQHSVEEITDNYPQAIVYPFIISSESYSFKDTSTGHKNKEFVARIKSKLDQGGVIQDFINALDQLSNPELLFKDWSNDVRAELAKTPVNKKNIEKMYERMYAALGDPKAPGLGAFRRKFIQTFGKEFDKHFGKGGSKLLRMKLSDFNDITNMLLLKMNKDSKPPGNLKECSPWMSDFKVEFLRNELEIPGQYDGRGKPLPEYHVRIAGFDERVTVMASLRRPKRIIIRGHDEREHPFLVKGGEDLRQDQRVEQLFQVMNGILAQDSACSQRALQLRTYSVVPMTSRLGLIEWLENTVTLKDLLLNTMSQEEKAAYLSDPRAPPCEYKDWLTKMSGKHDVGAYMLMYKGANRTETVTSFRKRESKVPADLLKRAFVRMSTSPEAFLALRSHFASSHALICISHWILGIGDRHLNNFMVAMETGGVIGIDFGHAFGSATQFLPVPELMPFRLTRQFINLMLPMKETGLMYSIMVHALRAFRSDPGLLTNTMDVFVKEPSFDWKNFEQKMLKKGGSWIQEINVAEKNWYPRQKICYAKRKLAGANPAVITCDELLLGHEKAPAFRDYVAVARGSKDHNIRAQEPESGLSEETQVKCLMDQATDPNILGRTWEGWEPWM

How the values were obtained:
[1] = biological target: poly-(ADP-ribose) polymerase (PARP1) (human) (UniProt P09874); assay: IP with agarose-coupled ERG antibody from three ERG-rearranged tissues with or without ethidium bromide, Western blot (FIG. 9E)
[2] = biological target: poly-(ADP-ribose) polymerase (PARP1) (human) (UniProt P09874); assay: ERG immunoprecipitation from VCaP cells in 100 µM ethidium bromide, Western blot (FIG. 1b)
[3] = biological target: poly-(ADP-ribose) polymerase (PARP1) (human) (UniProt P09874); assay: IP-Western in PC3-ERG cells (FIG. 20b)
[4] = biological target: poly-(ADP-ribose) polymerase (PARP1) (human) (UniProt P09874); assay: ERG immunoprecipitation from human prostate cancer tissues, Western blot (FIG. 1c)
[5] = biological target: poly-(ADP-ribose) polymerase (PARP1) (human) (UniProt P09874); assay: ERG immunoprecipitation from VCaP cells, Western blot (FIG. 1b)
[6] = biological target: poly-(ADP-ribose) polymerase (PARP1) (human) (UniProt P09874); assay: IP-Western in PC3 cells overexpressing ERG (FIG. 20b)
[7] = biological target: poly-(ADP-ribose) polymerase (PARP1) (human) (UniProt P09874); assay: co-immunoprecipitation, Western blot (FIG. 1)
[8] = biological target: DNA-dependent protein kinase catalytic subunit (DNA-PKcs) (human) (UniProt P78527); assay: IP of epitope-tagged ERG (V5 in VCaP, FLAG in HEK293) and LC-MS/MS; list of interactions identified with high confidence

Measured: binding

B1: ERG, TMPRSS2:ERG gene fusion product (TMPRSS2 exon 1 fused to ERG1 exon 2) (protein, human, UniProt P11308 33-479, looked up)
chain: MTASSSSDYGQTSKMSPRVPQQDWLSQPPARVTIKMECNPSQVNGSRNSPDECSVAKGGKMVGSPDTVGMNYGSYMEEKHMPPPNMTTNERRVIVPADPTLWSTDHVRQWLEWAVKEYGLPDVNILLFQNIDGKELCKMTKDDFQRLTPSYNADILLSHLHYLRETPLPHLTSDDVDKALQNSPRLMHARNTGGAAFIFPNTSVYPEATQRITTRPDLPYEPPRRSAWTGHGHPTPQSKAAQPSPSTVPKTEDQRPQLDPYQILGPTSSRLANPGSGQIQLWQFLLELLSDSSNSSCITWEGTNGEFKMTDPDEVARRWGERKSKPNMNYDKLSRALRYYYDKNIMTKVHGKRYAYKFDFHGIAQALQPHPPESSLYKYPSDLPYMGSYHAHPQKMNFVAPHPPALPVTSSSFFAAPNPYWNSPTGGIYPNTRLPTSHMPSHLGTYY
not listed: [8]
binds: all other assays above

B2: Epitope-tagged ERG used as bait for IP-mass spectrometry (V5-tagged in VCaP cells, FLAG-tagged in HEK293 cells) (protein, human, UniProt P11308 47-479, looked up, not shown: small tags and cut ends)
chain: MSPRVPQQDWLSQPPARVTIKMECNPSQVNGSRNSPDECSVAKGGKMVGSPDTVGMNYGSYMEEKHMPPPNMTTNERRVIVPADPTLWSTDHVRQWLEWAVKEYGLPDVNILLFQNIDGKELCKMTKDDFQRLTPSYNADILLSHLHYLRETPLPHLTSDDVDKALQNSPRLMHARNTGGAAFIFPNTSVYPEATQRITTRPDLPYEPPRRSAWTGHGHPTPQSKAAQPSPSTVPKTEDQRPQLDPYQILGPTSSRLANPGSGQIQLWQFLLELLSDSSNSSCITWEGTNGEFKMTDPDEVARRWGERKSKPNMNYDKLSRALRYYYDKNIMTKVHGKRYAYKFDFHGIAQALQPHPPESSLYKYPSDLPYMGSYHAHPQKMNFVAPHPPALPVTSSSFFAAPNPYWNSPTGGIYPNTRLPTSHMPSHLGTYY
binds: [8]
